Results are given in words; binding and its absence hold for the method and conditions named. For some of these results: In cells and extracts the contact can be indirect. Some results given as binding are weak or reduced against the parent protein; the word gives no strength. Sequences can lack the tags named with a protein.
Legend:
[1] = biological target: Full-length LRP1 purified from rat liver (rat) (UniProt G3V928); assay: MAG-Fc on Protein A-Sepharose incubated with purified LRP1, immunoblot for LRP1
[2] = biological target: CII-Fc (second cluster of complement-like repeats of human LRP1, amino acids 804-1185, as Fc fusion protein) (human) (UniProt Q07954); assay: dot blot: 1 µg CII-Fc on nitrocellulose, MAG-Fc in solution, MAG-specific antibody
[3] = biological target: CIV-Fc (fourth cluster of complement-like repeats of human LRP1, amino acids 3331-3778, as Fc fusion protein) (human) (UniProt Q07954); assay: dot blot: 1 µg CIV-Fc on nitrocellulose, MAG-Fc in solution, MAG-specific antibody
[4] = biological target: LRP1 of mouse N2a neuroblastoma cells (full-length LRP1 in N2a cell extracts and on N2a cells) (mouse) (UniProt Q91ZX7); assay: pull-down from N2a cell extracts with MAG-Fc on Protein A-Sepharose, immunoblot for LRP1
[5] = biological target: LRP1 in extracts of N20.1 oligodendroglial cells (UniProt Q91ZX7); assay: co-precipitation of LRP1 with MAG-Fc from extracts of N20.1 cells, 48 or 72 h after p75NTR siRNA
[6] = biological target: LRP1 in extracts of N20.1 oligodendroglial cells (UniProt Q91ZX7); assay: co-precipitation of LRP1 with MAG-Fc from extracts of N20.1 cells, 48 and 72 h after p75NTR siRNA
[7] = biological target: LRP1 in extracts of N20.1 oligodendroglial cells (UniProt Q91ZX7); assay: affinity precipitation from N20.1 cell extracts with MAG-Fc on Protein A-Sepharose, immunoblot for LRP1

By UniProt entry, the sequences of proteins in these tests, tags left out. Residues count along the entry.
UniProt Q91ZX7, residues 20-4545: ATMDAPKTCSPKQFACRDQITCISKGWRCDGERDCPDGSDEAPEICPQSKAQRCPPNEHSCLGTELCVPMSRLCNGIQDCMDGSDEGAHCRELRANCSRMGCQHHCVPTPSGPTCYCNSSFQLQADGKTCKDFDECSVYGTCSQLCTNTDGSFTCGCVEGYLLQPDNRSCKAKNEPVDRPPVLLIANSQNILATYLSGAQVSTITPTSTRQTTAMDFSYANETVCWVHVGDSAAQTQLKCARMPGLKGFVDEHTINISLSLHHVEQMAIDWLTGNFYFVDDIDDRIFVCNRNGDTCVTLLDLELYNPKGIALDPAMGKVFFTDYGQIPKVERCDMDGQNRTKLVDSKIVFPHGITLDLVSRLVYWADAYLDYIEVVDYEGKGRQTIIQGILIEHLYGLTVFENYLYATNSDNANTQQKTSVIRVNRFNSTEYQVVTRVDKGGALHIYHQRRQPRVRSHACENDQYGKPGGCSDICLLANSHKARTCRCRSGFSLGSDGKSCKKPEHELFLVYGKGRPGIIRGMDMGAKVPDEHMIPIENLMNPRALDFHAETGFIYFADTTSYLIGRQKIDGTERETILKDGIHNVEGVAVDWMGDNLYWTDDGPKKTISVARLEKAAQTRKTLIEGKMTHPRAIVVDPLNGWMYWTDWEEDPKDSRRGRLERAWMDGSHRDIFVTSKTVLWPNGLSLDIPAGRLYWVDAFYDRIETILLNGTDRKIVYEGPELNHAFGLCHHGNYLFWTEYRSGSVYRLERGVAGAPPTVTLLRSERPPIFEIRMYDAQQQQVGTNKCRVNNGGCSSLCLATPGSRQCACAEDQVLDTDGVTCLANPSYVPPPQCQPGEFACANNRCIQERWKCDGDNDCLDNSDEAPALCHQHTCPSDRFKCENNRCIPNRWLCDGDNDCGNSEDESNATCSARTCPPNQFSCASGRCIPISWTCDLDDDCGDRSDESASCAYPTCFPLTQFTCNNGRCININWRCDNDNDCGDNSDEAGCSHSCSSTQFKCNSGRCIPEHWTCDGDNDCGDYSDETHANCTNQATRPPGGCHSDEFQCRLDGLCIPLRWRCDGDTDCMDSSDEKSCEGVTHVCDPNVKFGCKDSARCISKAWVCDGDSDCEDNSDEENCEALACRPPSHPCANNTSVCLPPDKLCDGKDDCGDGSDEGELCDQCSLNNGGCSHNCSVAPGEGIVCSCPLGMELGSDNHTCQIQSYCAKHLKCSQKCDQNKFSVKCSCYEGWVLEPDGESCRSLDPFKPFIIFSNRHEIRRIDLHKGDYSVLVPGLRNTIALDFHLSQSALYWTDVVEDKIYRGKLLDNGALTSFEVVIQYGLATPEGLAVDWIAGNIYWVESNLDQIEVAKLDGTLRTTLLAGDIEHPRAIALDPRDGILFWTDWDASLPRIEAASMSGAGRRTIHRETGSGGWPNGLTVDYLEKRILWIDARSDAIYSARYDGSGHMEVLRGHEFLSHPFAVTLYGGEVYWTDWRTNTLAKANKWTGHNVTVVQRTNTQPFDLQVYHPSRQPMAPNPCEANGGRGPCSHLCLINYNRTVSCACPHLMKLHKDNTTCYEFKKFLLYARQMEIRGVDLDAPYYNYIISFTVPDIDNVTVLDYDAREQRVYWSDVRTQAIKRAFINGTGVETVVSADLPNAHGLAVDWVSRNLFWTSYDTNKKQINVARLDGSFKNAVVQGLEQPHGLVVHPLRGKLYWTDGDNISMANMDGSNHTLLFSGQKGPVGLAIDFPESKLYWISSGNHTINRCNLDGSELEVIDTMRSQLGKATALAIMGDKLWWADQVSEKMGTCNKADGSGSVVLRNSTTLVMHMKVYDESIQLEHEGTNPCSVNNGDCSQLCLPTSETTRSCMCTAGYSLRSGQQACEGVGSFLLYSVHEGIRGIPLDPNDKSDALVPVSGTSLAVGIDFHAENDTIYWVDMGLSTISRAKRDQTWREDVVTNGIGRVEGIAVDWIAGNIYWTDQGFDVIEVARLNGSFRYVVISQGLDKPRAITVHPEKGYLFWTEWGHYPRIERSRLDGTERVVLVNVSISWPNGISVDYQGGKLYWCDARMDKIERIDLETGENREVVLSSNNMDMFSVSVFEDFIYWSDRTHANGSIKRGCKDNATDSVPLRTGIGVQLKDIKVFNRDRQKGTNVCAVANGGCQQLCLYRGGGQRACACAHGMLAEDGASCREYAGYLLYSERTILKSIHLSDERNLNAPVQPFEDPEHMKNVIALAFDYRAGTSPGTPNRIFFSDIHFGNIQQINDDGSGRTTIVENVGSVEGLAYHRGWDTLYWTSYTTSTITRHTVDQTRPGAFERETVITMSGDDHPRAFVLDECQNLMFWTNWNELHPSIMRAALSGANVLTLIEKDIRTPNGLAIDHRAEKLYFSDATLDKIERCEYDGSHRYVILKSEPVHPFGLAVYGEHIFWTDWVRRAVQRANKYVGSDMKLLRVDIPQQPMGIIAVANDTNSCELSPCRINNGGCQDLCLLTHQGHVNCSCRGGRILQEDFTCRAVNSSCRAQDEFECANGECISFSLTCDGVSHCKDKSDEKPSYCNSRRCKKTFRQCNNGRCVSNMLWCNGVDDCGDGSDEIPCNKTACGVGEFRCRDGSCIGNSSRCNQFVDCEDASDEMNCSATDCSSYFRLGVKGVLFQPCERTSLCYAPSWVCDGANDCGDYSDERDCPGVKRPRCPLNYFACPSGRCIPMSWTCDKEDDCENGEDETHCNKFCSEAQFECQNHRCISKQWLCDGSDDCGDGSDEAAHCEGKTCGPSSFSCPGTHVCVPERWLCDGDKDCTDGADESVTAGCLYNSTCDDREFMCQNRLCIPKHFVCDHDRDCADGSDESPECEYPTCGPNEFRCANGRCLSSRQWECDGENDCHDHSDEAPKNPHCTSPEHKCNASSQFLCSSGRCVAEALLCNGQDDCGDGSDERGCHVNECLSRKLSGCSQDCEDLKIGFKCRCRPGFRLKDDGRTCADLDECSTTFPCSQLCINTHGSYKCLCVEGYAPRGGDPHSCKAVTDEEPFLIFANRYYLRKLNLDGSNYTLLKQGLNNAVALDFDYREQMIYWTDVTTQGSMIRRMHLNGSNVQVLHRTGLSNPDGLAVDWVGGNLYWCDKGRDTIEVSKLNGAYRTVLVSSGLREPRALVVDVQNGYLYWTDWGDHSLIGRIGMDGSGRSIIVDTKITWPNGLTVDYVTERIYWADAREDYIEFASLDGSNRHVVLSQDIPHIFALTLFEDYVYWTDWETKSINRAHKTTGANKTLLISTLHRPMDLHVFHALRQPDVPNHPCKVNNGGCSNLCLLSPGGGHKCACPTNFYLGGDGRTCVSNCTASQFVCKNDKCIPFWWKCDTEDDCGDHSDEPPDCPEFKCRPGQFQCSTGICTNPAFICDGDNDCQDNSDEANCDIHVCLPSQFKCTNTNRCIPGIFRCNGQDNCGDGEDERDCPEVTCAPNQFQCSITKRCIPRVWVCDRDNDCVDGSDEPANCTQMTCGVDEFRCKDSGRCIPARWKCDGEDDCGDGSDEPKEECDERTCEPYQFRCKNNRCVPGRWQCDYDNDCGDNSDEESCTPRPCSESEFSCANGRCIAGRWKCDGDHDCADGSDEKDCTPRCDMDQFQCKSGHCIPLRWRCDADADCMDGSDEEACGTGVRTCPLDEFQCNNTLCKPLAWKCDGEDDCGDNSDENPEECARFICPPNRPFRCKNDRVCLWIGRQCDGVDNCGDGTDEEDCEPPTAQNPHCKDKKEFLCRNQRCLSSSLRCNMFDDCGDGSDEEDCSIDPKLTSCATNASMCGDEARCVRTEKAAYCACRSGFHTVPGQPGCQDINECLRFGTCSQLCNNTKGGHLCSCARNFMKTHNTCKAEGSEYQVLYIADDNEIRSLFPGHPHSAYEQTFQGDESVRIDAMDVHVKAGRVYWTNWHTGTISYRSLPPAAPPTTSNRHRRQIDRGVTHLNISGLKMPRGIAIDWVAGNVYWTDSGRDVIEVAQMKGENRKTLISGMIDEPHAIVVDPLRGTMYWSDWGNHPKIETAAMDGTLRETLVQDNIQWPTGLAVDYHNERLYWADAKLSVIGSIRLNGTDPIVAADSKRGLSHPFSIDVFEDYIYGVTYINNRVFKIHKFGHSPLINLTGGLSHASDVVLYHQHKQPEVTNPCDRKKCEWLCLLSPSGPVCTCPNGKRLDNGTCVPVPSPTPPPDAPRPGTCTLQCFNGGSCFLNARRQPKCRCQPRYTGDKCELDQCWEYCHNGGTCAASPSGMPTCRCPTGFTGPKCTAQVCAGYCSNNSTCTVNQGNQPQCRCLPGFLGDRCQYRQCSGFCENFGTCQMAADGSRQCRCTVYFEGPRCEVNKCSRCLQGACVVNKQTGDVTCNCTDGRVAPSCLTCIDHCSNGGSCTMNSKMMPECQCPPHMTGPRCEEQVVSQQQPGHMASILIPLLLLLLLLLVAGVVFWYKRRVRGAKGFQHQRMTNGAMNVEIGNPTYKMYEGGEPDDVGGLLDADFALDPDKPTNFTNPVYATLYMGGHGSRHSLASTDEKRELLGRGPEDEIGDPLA

Measured: binding

B1: MAG-Fc (full length rat MAG expressed as Fc fusion protein) (Fc fusion, UniProt P07722 20-516, looked up, not shown: a dimerising Fc or GST)
chain: GHWGAWMPSSISAFEGTCVSIPCRFDFPDELRPAVVHGVWYFNSPYPKNYPPVVFKSRTQVVHESFQGRSRLLGDLGLRNCTLLLSTLSPELGGKYYFRGDLGGYNQYTFSEHSVLDIINTPNIVVPPEVVAGTEVEVSCMVPDNCPELRPELSWLGHEGLGEPTVLGRLREDEGTWVQVSLLHFVPTREANGHRLGCQAAFPNTTLQFEGYASLDVKYPPVIVEMNSSVEAIEGSHVSLLCGADSNPPPLLTWMRDGMVLREAVAESLYLDLEEVTPAEDGIYACLAENAYGQDNRTVELSVMYAPWKPTVNGTVVAVEGETVSILCSTQSNPDPILTIFKEKQILATVIYESQLQLELPAVTPEDDGEYWCVAENQYGQRATAFNLSVEFAPIILLESHCAAARDTVQCLCVVKSNPEPSVAFELPSRNVTVNETEREFVYSERSGLLLTSILTLRGQAQAPPRVICTSRNLYGTQSLELPFQGAHRLMWAKIGP
modifications: radioiodinated (125I) in the internalization assay only
binds: [1] | [2] | [3] | [4] | [5] | [6] | [7]
